Experimental data: PubChem BioAssay AID1259308 (NCATS, 2017)

Purpose: 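Candidate targets for better recombinant protein yield in mammalian cells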 (primary screen)
Cells: human HEK293 embryonic kidney cells stably expressing firefly luciferase (HEK-CMV-Luc2-Hygro)
Reagent: single siRNA against human genes, 0.8 pmol siRNA per well
Timing: 72 h
Measured: 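Reporter luminescence and viable-cell signal on separate replicate plates, given as percent of non-targeting control and median/MAD z-scores, plus per-cell luciferase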
Reading the numbers: total luciferase, z-score and total luciferase, % of control: higher = more reporter protein produced; luciferase per cell, z-score: higher = more reporter output per viable cell; viable cells, % of control: higher = more viable cells
Call rule: 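An siRNA counts as active if its total luciferase robust z-score exceeds 3; genes with two or more such siRNAs out of three were retested with fresh siRNAs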
Meaning of the calls: active = raised luciferase; inactive = no rise
In all, the deposit lists about 59,000 reagents; below is a random part of them. Over the whole deposit, about 1,510 (2.6%) are marked active. 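Calls use total luciferase alone and ignore viability, so some active siRNAs may act by altering cell number.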 The numbers tell different reagents against one gene apart.

gene,reagent no.,"total luciferase, z-score","total luciferase, % of control","luciferase per cell, z-score","viable cells, % of control",Call
RNF141 (ring finger protein 141),1,0.182,85.5,-0.441,107,inactive
RNF141 (ring finger protein 141),2,1.22,106,0.734,97.8,inactive
RNF141 (ring finger protein 141),3,-0.636,69.2,-0.987,100,inactive
CDC73 (cell division cycle 73),1,0.0123,82.1,-0.0271,92.4,inactive
CDC73 (cell division cycle 73),2,-1.33,55.4,-0.789,76.2,inactive
CDC73 (cell division cycle 73),3,0.384,89.5,1.06,75.7,inactive
DUOX1 (dual oxidase 1),1,-0.244,77,1.04,65.4,inactive
DUOX1 (dual oxidase 1),2,-1.27,56.5,-1.67,98.1,inactive
DUOX1 (dual oxidase 1),3,-0.056,80.8,-0.549,104,inactive
NHLRC3 (NHL repeat containing 3),1,0.428,90.4,0.192,96,inactive
NHLRC3 (NHL repeat containing 3),2,0.696,95.7,0.839,85.8,inactive
NHLRC3 (NHL repeat containing 3),3,0.343,88.7,-0.832,123,inactive
HDAC10 (histone deacetylase 10),1,-0.454,72.8,-0.338,89,inactive
HDAC10 (histone deacetylase 10),2,-0.262,76.7,-0.464,96.8,inactive
HDAC10 (histone deacetylase 10),3,-0.116,79.6,-0.416,99.2,inactive
ZNF627 (zinc finger protein 627),1,0.46,91,0.51,88.9,inactive
ZNF627 (zinc finger protein 627),2,-0.421,73.5,-0.273,88.3,inactive
ZNF627 (zinc finger protein 627),3,0.63,94.4,-0.079,108,inactive
"FBXL9P (F-box and leucine rich repeat protein 9, pseudogene)",1,-0.226,77.4,0.0792,84.7,inactive
"FBXL9P (F-box and leucine rich repeat protein 9, pseudogene)",2,1.74,117,1.79,81.4,inactive
"FBXL9P (F-box and leucine rich repeat protein 9, pseudogene)",3,0.206,86,-0.532,111,inactive
EEF1DP6,1,-0.755,66.9,-0.346,81.8,inactive
EEF1DP6,2,0.211,86.1,-0.286,104,inactive
EEF1DP6,3,-0.184,78.2,0.0352,86.6,inactive
PNLIPRP2 (pancreatic lipase related protein 2 (gene/pseudogene)),1,-0.917,63.7,-0.391,78.9,inactive
PNLIPRP2 (pancreatic lipase related protein 2 (gene/pseudogene)),2,1.95,121,1.48,91.4,inactive
PNLIPRP2 (pancreatic lipase related protein 2 (gene/pseudogene)),3,-2.12,39.7,-1.63,68.2,inactive
ACTR10 (actin related protein 10),1,0.912,100,0.546,96.8,inactive
ACTR10 (actin related protein 10),2,-0.281,76.3,-0.212,90.2,inactive
ACTR10 (actin related protein 10),3,0.0318,82.5,-0.738,112,inactive
SNAPC4 (small nuclear RNA activating complex polypeptide 4),1,-0.672,68.5,-0.695,91.9,inactive
SNAPC4 (small nuclear RNA activating complex polypeptide 4),2,-0.511,71.7,-0.757,97.8,inactive
SNAPC4 (small nuclear RNA activating complex polypeptide 4),3,0.157,85,-0.783,117,inactive
CCS (copper chaperone for superoxide dismutase),1,0.00694,82,-0.29,98.9,inactive
CCS (copper chaperone for superoxide dismutase),2,-0.258,76.8,-0.435,96.2,inactive
CCS (copper chaperone for superoxide dismutase),3,-0.835,65.3,0.346,66.6,inactive
C3orf62 (chromosome 3 open reading frame 62),1,-1.3,56.1,-0.658,74.5,inactive
C3orf62 (chromosome 3 open reading frame 62),2,-1.83,45.5,-2.25,91.8,inactive
C3orf62 (chromosome 3 open reading frame 62),3,-2.67,28.7,-3,70.7,inactive

In a second layout: entries from further up.
CCS (copper chaperone for superoxide dismutase) #1 — total luciferase, z-score = 0.00694; total luciferase, % of control = 82; luciferase per cell, z-score = -0.29; viable cells, % of control = 98.9; Call = inactive
CCS (copper chaperone for superoxide dismutase) #2 — total luciferase, z-score = -0.258; total luciferase, % of control = 76.8; luciferase per cell, z-score = -0.435; viable cells, % of control = 96.2; Call = inactive
CCS (copper chaperone for superoxide dismutase) #3 — total luciferase, z-score = -0.835; total luciferase, % of control = 65.3; luciferase per cell, z-score = 0.346; viable cells, % of control = 66.6; Call = inactive
